These are yes or no findings as the source states them, for the method shown. For part of these data: In cells and extracts the contact can be indirect. Some entries that bind do so weakly or less than the wild type. For part of these data: Tags and fused reporters may be left off the sequences shown. Blank lines part the entries; values can stand above or below the molecule they belong to.
Columns and labels:
[1] = molecular target: T1, Flag-tagged MYLK4 (myosin light chain kinase family member 4) in 143B cells (human) (UniProt Q86YV6); experiment: co-IP; 143B cells stably expressing MYLK4-FLAG; NP40 lysate, 1 μg antibody or IgG per 500 μg total protein, Protein G beads overnight at 4 °C; immunoblot
T1 sequence: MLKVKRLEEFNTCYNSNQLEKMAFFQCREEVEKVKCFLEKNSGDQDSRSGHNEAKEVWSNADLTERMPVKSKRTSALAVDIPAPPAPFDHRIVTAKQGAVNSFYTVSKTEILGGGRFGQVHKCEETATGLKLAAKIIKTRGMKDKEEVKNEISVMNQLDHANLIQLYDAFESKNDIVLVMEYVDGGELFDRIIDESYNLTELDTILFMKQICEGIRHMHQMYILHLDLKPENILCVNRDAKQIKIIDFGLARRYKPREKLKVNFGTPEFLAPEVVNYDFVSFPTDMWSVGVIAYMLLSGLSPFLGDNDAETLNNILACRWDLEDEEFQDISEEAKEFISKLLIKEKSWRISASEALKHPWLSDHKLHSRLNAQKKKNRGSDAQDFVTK

[2] = molecular target: T2, Myosin light chain kinase family member 4 (MYLK4), endogenous in 143B cells (human (endogenous in 143B)) (UniProt Q86YV6); experiment: co-IP; endogenous proteins in 143B cells, reciprocal; NP40 lysate, 1 μg antibody or IgG per 500 μg total protein, Protein G beads overnight at 4 °C; immunoblot
T2 sequence: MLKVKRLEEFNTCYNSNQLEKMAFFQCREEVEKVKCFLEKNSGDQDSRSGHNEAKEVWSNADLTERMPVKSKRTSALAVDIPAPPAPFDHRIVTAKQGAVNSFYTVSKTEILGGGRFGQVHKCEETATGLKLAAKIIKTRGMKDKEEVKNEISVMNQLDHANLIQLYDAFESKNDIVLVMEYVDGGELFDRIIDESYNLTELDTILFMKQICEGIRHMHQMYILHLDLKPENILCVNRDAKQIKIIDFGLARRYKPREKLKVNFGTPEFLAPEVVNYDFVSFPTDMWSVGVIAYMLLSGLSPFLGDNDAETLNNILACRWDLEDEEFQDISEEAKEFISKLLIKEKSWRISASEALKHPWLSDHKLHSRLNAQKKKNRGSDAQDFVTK

[3] = molecular target: T3, Flag-tagged MYLK4 in HEK-293T cells (human) (UniProt Q86YV6); experiment: co-IP; HEK-293T cells cotransfected with Flag-tagged MYLK4 and HIS-tagged EGFR, reciprocal; NP40 lysate, Protein G beads overnight at 4 °C; immunoblot
T3 sequence: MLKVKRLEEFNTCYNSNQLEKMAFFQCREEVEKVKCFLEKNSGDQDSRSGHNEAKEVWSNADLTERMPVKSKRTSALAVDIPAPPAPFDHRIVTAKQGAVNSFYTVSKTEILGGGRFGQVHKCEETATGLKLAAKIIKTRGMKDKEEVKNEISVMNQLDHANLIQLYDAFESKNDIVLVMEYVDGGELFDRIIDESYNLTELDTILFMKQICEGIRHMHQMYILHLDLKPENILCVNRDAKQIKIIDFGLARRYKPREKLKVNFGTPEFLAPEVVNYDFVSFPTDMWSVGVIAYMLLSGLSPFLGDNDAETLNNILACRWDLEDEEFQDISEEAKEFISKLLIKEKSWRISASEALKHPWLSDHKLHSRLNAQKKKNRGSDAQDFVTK

[4] = molecular target: Epidermal growth factor receptor (EGFR), endogenous in 143B cells (human (endogenous in 143B)) (UniProt P00533); experiment: co-IP; endogenous proteins in 143B cells, reciprocal; NP40 lysate, 1 μg antibody or IgG per 500 μg total protein, Protein G beads overnight at 4 °C; immunoblot
[5] = molecular target: His-EGFR (668-1210) (human) (UniProt P00533); experiment: pull-down; His-tag pull-down: 10 μg His-EGFR (668-1210) mixed with 10 μg GST-MYLK4 or GST, incubated with Ni-NTA agarose; western blot with anti-GST and anti-His tag; both purified
[6] = molecular target: HIS-tagged EGFR in HEK-293T cells (human) (UniProt P00533); experiment: co-IP; HEK-293T cells cotransfected with Flag-tagged MYLK4 and HIS-tagged EGFR, reciprocal; NP40 lysate, Protein G beads overnight at 4 °C; immunoblot

- binding [1]: binds
- binding [2]: binds
Molecule: Epidermal growth factor receptor (EGFR), endogenous in 143B cells (from UniProt P00533 25-1210)

- binding [3]: binds
Molecule: HIS-tagged EGFR in HEK-293T cells (from UniProt P00533 25-1210) (receptor)

- binding [4]: binds
B1: Myosin light chain kinase family member 4 (MYLK4), endogenous in 143B cells (enzyme, UniProt Q86YV6 1-388)
chain: MLKVKRLEEFNTCYNSNQLEKMAFFQCREEVEKVKCFLEKNSGDQDSRSGHNEAKEVWSNADLTERMPVKSKRTSALAVDIPAPPAPFDHRIVTAKQGAVNSFYTVSKTEILGGGRFGQVHKCEETATGLKLAAKIIKTRGMKDKEEVKNEISVMNQLDHANLIQLYDAFESKNDIVLVMEYVDGGELFDRIIDESYNLTELDTILFMKQICEGIRHMHQMYILHLDLKPENILCVNRDAKQIKIIDFGLARRYKPREKLKVNFGTPEFLAPEVVNYDFVSFPTDMWSVGVIAYMLLSGLSPFLGDNDAETLNNILACRWDLEDEEFQDISEEAKEFISKLLIKEKSWRISASEALKHPWLSDHKLHSRLNAQKKKNRGSDAQDFVTK

- binding [5]: binds
B2: GST-MYLK4 (enzyme, UniProt Q86YV6 1-388)
chain: MLKVKRLEEFNTCYNSNQLEKMAFFQCREEVEKVKCFLEKNSGDQDSRSGHNEAKEVWSNADLTERMPVKSKRTSALAVDIPAPPAPFDHRIVTAKQGAVNSFYTVSKTEILGGGRFGQVHKCEETATGLKLAAKIIKTRGMKDKEEVKNEISVMNQLDHANLIQLYDAFESKNDIVLVMEYVDGGELFDRIIDESYNLTELDTILFMKQICEGIRHMHQMYILHLDLKPENILCVNRDAKQIKIIDFGLARRYKPREKLKVNFGTPEFLAPEVVNYDFVSFPTDMWSVGVIAYMLLSGLSPFLGDNDAETLNNILACRWDLEDEEFQDISEEAKEFISKLLIKEKSWRISASEALKHPWLSDHKLHSRLNAQKKKNRGSDAQDFVTK

- binding [6]: binds
B3: Flag-tagged MYLK4 in HEK-293T cells (enzyme, UniProt Q86YV6 1-388)
chain: MLKVKRLEEFNTCYNSNQLEKMAFFQCREEVEKVKCFLEKNSGDQDSRSGHNEAKEVWSNADLTERMPVKSKRTSALAVDIPAPPAPFDHRIVTAKQGAVNSFYTVSKTEILGGGRFGQVHKCEETATGLKLAAKIIKTRGMKDKEEVKNEISVMNQLDHANLIQLYDAFESKNDIVLVMEYVDGGELFDRIIDESYNLTELDTILFMKQICEGIRHMHQMYILHLDLKPENILCVNRDAKQIKIIDFGLARRYKPREKLKVNFGTPEFLAPEVVNYDFVSFPTDMWSVGVIAYMLLSGLSPFLGDNDAETLNNILACRWDLEDEEFQDISEEAKEFISKLLIKEKSWRISASEALKHPWLSDHKLHSRLNAQKKKNRGSDAQDFVTK

From paper PMC8114533
